Source: US20230088052A1
Where a chain is given by its changes, count along the chain named. These are yes or no findings as the source states them, for the method shown. Each block holds one binder with its values, some of them ahead of it.

Target: his-tagged rhesus IL-4R recombinant protein (rhesus-IL-4R-his) (rhesus)
Experiment: ELISA, IL-4R-his coated on the plate

B2: human-murine chimeric antibody 7B10-C (antibody, V domains shown)
VH: QVQLQQPGTELLKPGASVSLSCKASGYTFTSYWMHWVKQRPGQGLEWIGLIHPNSDTTKFSENFKTRATLTIDKSSSTAYMKLSSLTSEDSAVYYCAKSKIITTIVARHWYFDVWGTGTTVTVSS
VL: DIVLTQSPPSLAVSLGQRATISCKASQSVDYGGDSYMNWYQQKLGQPPKVLIYAASNLESGIPARFSGSGSGTDFTLNIHPVEEEDVATYYCQHSNENPPTFGGGTKLEIK
binding: no binding

B4: humanized antibody hu25G7 (antibody, human IgG4 S228P, kappa, V domains shown)
VH: EVQLVESGGGLVQPGGSLRLSCAASGFTFSDYGMHWVRQAPGKGLEWVAFISSGSSIIYYADIVKGRSTISRDNAKNSLYLQMNSLRAEDTAVYYCTRGNKRGFFDYWGQGTLVTVSS
VL: EIVLTQSPATLSLSPGERATLSCNASSSVSYMYWYQQKPGQAPRLLIYLTSNLASGIPARFSGSGSGTDFTLTISSLEPEDFAVYYCQQWRSNPPMLTFGGGTKVEIKR
binding: no binding

B5: human-murine chimeric antibody 25G7-C (antibody, V domains shown)
VH: B4 VH with Q13K, R19K, G42E, S78T, Y80F, N84T, A88S, V93M, L113I, V114L
VL: QIVLTQSPALMSASPGEKVTMTCNASSSVSYMYWYQRKPRSSPKPWIYLTSNLASGVPVRFSGSGSGTSYSLTISSMEAEDAATYYCQQWRSNPPMLTFGSGTKLEVK
binding: no binding

B6: humanized antibody hu7B10 (antibody, human IgG1, kappa, V domains shown)
VH: EVQLVQSGAEVKKPGASVKVSCKASGYTFTSYWMHWVRQAPGQGLEWMGLIHPNSDTTKFSENFKTRVTMTIDTSISTAYMELSRLRSDDTAVYYCAKSKIITTIVARHWYFDVWGQGTTVTVSS
VL: DIVLTQTPLSLSVTPGQPASISCKASQSVDYGGDSYMNWYLQKPGQPPQLLIYAASNLESGVPDRFSGSGSGTDFTLKISRVEAEDVGVYYCQHSNENPPTFGGGTKVEIKR
binding: no binding

Continued, values first:

binding: no binding
B1: murine monoclonal antibody 7B10 (antibody, V domains shown)
VH: B2 VH
VL: B2 VL

binding: no binding
B3: murine monoclonal antibody 25G7 (antibody, V domains shown)
VH: B4 VH with Q13K, R19K, G42E, S78T, Y80F, N84T, A88S, V93M, L113I, V114L
VL: B5 VL
